From PMC5800818 come the findings set out here.

By UniProt entry, the sequences of proteins in these tests, tags left out. Where a name states a change or a piece, a line headed by the entry shows the natural chain unless it says otherwise. Chains listed by the source or under a name are the forms on record and can include a tag or linker.
Mdm2, expressed in cells (Q00987-11, form named): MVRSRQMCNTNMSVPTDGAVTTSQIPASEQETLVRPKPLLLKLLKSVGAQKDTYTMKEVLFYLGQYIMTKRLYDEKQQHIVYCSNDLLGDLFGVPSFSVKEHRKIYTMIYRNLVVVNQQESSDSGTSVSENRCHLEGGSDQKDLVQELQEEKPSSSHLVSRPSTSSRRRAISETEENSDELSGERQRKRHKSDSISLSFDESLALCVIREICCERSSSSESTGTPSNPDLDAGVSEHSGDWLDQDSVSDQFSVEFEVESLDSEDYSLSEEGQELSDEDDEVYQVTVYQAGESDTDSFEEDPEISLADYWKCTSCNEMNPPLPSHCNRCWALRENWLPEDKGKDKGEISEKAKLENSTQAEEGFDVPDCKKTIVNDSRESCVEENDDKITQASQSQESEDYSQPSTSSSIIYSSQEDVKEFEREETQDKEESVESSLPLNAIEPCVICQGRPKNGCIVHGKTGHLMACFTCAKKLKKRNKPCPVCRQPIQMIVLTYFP
Mdm2-mut (F255A-Y282A-Y287A mutant) (Q00987-11, form named): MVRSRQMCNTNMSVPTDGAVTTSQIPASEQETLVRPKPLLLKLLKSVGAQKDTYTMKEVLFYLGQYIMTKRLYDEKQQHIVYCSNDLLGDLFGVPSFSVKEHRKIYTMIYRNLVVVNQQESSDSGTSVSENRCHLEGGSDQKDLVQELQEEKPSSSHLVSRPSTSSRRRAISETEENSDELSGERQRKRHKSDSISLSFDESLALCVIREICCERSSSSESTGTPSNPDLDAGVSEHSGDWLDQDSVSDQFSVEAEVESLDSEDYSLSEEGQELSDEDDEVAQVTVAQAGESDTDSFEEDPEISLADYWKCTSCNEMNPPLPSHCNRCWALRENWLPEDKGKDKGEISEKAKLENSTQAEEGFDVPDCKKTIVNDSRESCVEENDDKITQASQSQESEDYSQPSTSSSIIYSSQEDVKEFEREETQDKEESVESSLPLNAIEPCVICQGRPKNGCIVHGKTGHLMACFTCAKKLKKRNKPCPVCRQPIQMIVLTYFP

These are yes or no findings as the source states them, for the method shown. In cells and extracts the contact can be indirect. Some entries that bind do so weakly or less than the wild type. Sequences can lack the tags named with a protein.

Experiment in all cases: co-IP; HEK293 cells cotransfected with Mdm2 constructs and FLAG-tagged Numb constructs; anti-FLAG IP, immunoblot; in Fig. 1 A with siRNA against p53 or control oligonucleotides
(In general: In western blotting, separated proteins are transferred to a membrane and probed.)

Test [1] has as its target T1, FLAG-tagged Numb isoform-3 (full length) (human) (UniProt P49757).
T1 sequence: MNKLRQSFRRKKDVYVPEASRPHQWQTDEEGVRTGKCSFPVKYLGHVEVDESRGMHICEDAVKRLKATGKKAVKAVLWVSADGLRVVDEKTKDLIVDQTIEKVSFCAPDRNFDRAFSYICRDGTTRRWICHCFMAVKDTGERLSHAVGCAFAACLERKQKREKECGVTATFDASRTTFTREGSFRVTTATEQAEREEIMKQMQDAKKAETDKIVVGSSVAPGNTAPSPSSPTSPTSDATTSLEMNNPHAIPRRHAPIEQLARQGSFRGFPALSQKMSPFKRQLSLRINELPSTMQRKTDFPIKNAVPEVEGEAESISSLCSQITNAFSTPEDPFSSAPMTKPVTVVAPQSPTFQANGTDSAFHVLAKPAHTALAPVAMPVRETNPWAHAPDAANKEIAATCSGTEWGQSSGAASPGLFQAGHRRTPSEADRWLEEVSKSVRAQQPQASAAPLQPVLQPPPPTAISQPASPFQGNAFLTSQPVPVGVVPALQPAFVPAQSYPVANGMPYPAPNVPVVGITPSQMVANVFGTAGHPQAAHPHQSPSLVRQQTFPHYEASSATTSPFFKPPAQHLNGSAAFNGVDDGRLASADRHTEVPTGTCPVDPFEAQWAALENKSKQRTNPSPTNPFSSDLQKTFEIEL

The target of test [2] is T2, FLAG–Numb-1 (human Numb isoform-1, full length) (human) (UniProt P49757).
T2 sequence: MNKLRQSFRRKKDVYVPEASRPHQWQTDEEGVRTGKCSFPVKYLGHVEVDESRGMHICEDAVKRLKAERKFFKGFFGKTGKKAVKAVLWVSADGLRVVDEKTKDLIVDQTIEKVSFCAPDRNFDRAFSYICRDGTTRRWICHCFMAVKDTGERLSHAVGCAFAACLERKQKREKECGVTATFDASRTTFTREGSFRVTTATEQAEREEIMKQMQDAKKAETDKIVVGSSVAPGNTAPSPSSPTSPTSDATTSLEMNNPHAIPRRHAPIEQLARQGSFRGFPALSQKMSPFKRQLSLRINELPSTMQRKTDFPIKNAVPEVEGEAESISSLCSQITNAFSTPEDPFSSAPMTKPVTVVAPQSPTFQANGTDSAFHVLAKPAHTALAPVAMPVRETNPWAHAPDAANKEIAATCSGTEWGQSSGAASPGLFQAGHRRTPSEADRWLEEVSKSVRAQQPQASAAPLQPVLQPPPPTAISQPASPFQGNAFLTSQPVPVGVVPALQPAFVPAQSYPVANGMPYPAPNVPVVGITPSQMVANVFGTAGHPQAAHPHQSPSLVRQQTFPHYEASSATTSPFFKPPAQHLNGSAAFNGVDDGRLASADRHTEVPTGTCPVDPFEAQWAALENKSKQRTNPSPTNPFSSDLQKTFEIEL

The target in test [3] is T3, FLAG-tagged Numb isoform-2 (human) (UniProt P49757).
T3 sequence: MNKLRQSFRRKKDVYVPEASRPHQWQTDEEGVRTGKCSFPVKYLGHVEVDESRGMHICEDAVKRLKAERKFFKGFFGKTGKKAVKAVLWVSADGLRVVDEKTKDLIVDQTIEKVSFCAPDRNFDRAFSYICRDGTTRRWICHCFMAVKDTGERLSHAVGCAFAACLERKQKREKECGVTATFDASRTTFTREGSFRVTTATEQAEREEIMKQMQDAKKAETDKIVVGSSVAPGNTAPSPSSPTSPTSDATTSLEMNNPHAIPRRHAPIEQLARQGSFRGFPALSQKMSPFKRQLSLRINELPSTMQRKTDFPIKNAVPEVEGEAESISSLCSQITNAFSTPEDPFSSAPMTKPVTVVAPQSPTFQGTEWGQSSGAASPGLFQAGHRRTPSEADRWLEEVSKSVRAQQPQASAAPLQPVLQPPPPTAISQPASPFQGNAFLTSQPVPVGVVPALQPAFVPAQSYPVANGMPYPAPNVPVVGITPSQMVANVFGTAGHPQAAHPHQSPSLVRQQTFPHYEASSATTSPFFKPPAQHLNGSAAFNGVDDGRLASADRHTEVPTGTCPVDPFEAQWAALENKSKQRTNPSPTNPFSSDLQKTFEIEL

Consider “Mdm2, expressed in cells (from UniProt Q00987-11 1-497)”, for which the binding entry in test [1], in test [2] and in test [3] was “binds” each time.

Take “Mdm2-mut (F255A-Y282A-Y287A mutant) (from UniProt Q00987-11 1-497)”: the binding entry in test [2] is “binds”.
